# Reference: PMC9997659, “TLN1 contains a cancer-associated cassette exon that alters talin-1 mechanosensitivity” (The Journal of Cell Biology, 2023)
# The chains behind the UniProt entries cited, without tags or fusion partners. Residues count along the entry.
# UniProt Q9Y490, residues 482-786: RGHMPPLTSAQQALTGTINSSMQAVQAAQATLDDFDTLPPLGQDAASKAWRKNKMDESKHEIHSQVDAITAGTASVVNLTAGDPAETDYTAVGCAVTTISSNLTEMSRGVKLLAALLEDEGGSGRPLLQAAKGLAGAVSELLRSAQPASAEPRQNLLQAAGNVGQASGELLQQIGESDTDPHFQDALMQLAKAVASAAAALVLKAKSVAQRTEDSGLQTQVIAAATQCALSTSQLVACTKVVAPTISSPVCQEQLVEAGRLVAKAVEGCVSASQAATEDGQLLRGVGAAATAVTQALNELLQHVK
# No constants are given. Whether binding was seen depends on the method and setting.
# Target: T1, Human talin-1 R1R2-WT (residues 482-786) (human, UniProt Q9Y490 482-786)
# T1 construct: talin-1 (TLN1), human, rod domains R1 and R2, residues 482-786 of the 2,541 amino acid protein; codon optimized synthetic gene in pET151; also called wild-type R1R2; talin R1R2-WT; source: E. coli BL21(DE3)*, purified (Nickel-NTA, TEV cleavage, HiTrap Q)
# Assay: SEC; Superdex-200 gel filtration of talin R1R2-WT or R1R2-17b alone; molecular weight calculated from the elution peak; both purified
substance,measurement,value
Human talin-1 R1R2-WT (residues 482-786) (from UniProt Q9Y490 482-786) (domain or fragment),binding,no binding
